Data as given in PubChem BioAssay AID1259254 (NCATS, 2017).

Screen: 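Genome-wide screen for genes that prevent DNA re-replication in cancer cells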 (primary screen)
Cell system: human HCT116 colorectal cancer cells
Reagent: single siRNA against human genes
Timing: 3 days
Measured: 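Nuclei stained with Hoechst and imaged; cell-cycle phase assigned by DNA content; G2 share scaled per plate, non-targeting siRNA 0%, GMNN siRNA 100%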
Direction: G2 robust z-score: higher = more G2 cells, more excess DNA replication
Rule for the call: 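Active siRNAs have a G2 robust z of 5 or more median absolute deviations over the median, which in these data means about 38% or higher of GMNN control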
Shown is a random part of about 59,000 reagents tested. In the full data, about 1,550 (2.6%) got an active call. 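G2 share is only a proxy for re-replication; each gene was hit by three separate siRNAs, and active genes were retested.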 The numbers tell different reagents against one gene apart. Not all columns of the deposit are shown. Not given: the amount of reagent.

Which result is listed for AMDHD1 (amidohydrolase domain containing 1) #1?
G2 robust z-score: -0.381; Call: inactive

How did the screen score AMDHD1 (amidohydrolase domain containing 1) #2?
G2 robust z-score: 0.146; Call: inactive

For AMDHD1 (amidohydrolase domain containing 1) #3, how do the results read?
G2 robust z-score: 0.0718; Call: inactive

What is on record for FBXL20 (F-box and leucine rich repeat protein 20) #1?
G2 robust z-score: 0.464; Call: inactive

What did the screen give for FBXL20 (F-box and leucine rich repeat protein 20) #2?
G2 robust z-score: -0.00255; Call: inactive

With FBXL20 (F-box and leucine rich repeat protein 20) #3, what does the deposit list?
G2 robust z-score: 0.0967; Call: inactive

For WBP1 (WW domain binding protein 1) #1, what does the deposit list?
G2 robust z-score: -0.148; Call: inactive

Which result is listed for WBP1 (WW domain binding protein 1) #2?
G2 robust z-score: -1.32; Call: inactive

Which result is listed for WBP1 (WW domain binding protein 1) #3?
G2 robust z-score: 0.824; Call: inactive

For KCTD5 (potassium channel tetramerization domain containing 5) #1, how do the results read?
G2 robust z-score: -0.452; Call: inactive

What is on record for KCTD5 (potassium channel tetramerization domain containing 5) #2?
G2 robust z-score: 2.03; Call: inactive

For KCTD5 (potassium channel tetramerization domain containing 5) #3, what does the deposit list?
G2 robust z-score: -0.266; Call: inactive

With OR2B11 (olfactory receptor family 2 subfamily B member 11) #1, what does the deposit list?
G2 robust z-score: -0.604; Call: inactive

Which result is listed for OR2B11 (olfactory receptor family 2 subfamily B member 11) #2?
G2 robust z-score: 0.664; Call: inactive

Which result is listed for OR2B11 (olfactory receptor family 2 subfamily B member 11) #3?
G2 robust z-score: 1.63; Call: inactive

What is on record for SNRPF (small nuclear ribonucleoprotein polypeptide F) #1?
G2 robust z-score: 0.75; Call: inactive

How did the screen score SNRPF (small nuclear ribonucleoprotein polypeptide F) #2?
G2 robust z-score: 2.53; Call: inactive

What is on record for SNRPF (small nuclear ribonucleoprotein polypeptide F) #3?
G2 robust z-score: 1.59; Call: inactive

With MYLIP (myosin regulatory light chain interacting protein) #1, what does the deposit list?
G2 robust z-score: -1.04; Call: inactive

With MYLIP (myosin regulatory light chain interacting protein) #2, what does the deposit list?
G2 robust z-score: 0.631; Call: inactive

How did the screen score MYLIP (myosin regulatory light chain interacting protein) #3?
G2 robust z-score: 2.72; Call: inactive

What is on record for SHISA5P1 (SHISA5 pseudogene 1) #1?
G2 robust z-score: -0.442; Call: inactive

What is on record for SHISA5P1 (SHISA5 pseudogene 1) #2?
G2 robust z-score: -0.36; Call: inactive

With SHISA5P1 (SHISA5 pseudogene 1) #3, how do the results read?
G2 robust z-score: 0.0695; Call: inactive

An excerpt taken from the entries so far:
OR2B11 (olfactory receptor family 2 subfamily B member 11) #1 | G2 robust z-score: -0.604; Call: inactive
OR2B11 (olfactory receptor family 2 subfamily B member 11) #2 | G2 robust z-score: 0.664; Call: inactive
OR2B11 (olfactory receptor family 2 subfamily B member 11) #3 | G2 robust z-score: 1.63; Call: inactive
